Values quoted from earlier work, collected in patent US9504745B2, “Compositions and methods for cancer treatment using targeted carbon nanotubes” (The Board of Regents of the University of Oklahoma, priority 2007, dated 2016).
For at least one compound, name, drawing or mass did not settle the structure.

System: glioma
Conditions: combination with radiotherapy; cited from earlier work

In the case of `Cn1nnc2c(C(N)=O)ncn2c1=O` [temozolomide], the median survival is given as 13 months.
